Measurements as given in the supplement of paper PMC10849652.
This is one part of the list.

By UniProt entry, the sequences of proteins in these tests, tags left out. Where a name states a change or a piece, a line headed by the entry shows the natural chain unless it says otherwise.
UniProt Q9BZD4: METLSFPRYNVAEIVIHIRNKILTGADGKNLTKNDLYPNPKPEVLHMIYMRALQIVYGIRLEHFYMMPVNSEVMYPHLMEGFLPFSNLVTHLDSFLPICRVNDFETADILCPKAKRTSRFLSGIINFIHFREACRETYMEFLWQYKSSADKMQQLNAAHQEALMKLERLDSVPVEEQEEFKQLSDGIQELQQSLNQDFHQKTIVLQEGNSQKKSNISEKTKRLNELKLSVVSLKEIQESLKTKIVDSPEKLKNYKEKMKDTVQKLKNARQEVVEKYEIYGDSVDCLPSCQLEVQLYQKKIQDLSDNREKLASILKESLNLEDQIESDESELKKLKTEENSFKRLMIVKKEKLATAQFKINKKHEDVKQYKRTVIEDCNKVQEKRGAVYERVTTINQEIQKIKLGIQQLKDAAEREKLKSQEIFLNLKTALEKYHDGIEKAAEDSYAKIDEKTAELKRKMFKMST
UniProt P78316: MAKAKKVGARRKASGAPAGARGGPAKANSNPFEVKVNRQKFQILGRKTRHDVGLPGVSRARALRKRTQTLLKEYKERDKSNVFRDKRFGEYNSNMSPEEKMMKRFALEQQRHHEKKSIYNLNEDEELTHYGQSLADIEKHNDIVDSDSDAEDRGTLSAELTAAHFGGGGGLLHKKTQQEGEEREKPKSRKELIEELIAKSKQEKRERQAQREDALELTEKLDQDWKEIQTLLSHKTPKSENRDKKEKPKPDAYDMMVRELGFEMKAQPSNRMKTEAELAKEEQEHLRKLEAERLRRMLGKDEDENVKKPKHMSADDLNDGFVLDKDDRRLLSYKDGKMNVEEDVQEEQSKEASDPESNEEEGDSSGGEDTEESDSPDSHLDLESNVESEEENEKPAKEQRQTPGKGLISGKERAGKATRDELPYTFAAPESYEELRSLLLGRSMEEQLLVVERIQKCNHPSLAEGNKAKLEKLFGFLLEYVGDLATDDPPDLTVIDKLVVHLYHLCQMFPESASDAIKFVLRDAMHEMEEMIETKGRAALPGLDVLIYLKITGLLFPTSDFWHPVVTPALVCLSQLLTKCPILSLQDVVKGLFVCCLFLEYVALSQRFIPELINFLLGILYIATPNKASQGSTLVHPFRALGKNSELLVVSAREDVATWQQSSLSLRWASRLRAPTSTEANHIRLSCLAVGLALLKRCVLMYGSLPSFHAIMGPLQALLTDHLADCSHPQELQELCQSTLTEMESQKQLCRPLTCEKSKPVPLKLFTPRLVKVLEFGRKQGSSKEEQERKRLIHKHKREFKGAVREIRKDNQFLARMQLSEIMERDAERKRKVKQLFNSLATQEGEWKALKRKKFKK
UniProt Q9Y314: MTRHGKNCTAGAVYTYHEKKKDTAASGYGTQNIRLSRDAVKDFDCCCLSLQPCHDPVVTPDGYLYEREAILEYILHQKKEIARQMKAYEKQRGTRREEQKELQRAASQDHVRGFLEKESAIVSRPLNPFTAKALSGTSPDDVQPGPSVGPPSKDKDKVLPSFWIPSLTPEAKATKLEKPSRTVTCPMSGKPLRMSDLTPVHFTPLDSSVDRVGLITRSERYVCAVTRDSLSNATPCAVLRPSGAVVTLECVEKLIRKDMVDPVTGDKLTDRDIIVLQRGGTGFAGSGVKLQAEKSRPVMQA
UniProt Q7Z417: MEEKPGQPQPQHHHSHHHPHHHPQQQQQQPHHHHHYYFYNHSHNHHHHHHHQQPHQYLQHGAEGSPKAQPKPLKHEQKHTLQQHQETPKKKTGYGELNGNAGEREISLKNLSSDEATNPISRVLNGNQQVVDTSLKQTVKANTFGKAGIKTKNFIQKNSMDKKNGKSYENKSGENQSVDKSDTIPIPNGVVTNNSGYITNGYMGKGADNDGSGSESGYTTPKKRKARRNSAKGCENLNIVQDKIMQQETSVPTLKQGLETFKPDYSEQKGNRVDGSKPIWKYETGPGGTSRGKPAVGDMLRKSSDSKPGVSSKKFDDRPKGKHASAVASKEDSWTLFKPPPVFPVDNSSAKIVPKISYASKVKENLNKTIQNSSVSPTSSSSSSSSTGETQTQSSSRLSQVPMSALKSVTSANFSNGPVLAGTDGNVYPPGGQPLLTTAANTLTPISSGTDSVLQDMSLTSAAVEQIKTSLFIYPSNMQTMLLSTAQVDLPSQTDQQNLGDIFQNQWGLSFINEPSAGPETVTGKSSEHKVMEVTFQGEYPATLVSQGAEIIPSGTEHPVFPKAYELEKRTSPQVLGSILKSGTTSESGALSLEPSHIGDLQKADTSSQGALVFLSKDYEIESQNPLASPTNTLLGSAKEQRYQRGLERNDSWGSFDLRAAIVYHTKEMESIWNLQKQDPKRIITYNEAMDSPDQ
UniProt Q9NZJ9: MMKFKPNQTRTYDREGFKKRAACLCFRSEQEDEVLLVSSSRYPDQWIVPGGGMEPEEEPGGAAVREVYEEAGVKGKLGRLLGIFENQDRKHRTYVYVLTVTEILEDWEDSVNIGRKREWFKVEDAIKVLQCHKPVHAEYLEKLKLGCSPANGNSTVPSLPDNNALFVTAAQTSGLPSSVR
UniProt P78549: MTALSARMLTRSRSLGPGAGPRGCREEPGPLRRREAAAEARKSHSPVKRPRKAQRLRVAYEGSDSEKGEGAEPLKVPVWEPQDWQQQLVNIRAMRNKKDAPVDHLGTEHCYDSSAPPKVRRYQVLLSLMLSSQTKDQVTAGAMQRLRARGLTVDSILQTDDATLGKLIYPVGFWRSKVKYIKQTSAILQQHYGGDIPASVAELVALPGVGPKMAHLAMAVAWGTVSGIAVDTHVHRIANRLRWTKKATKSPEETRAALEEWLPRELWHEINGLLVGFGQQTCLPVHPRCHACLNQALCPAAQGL
UniProt Q9H6R4: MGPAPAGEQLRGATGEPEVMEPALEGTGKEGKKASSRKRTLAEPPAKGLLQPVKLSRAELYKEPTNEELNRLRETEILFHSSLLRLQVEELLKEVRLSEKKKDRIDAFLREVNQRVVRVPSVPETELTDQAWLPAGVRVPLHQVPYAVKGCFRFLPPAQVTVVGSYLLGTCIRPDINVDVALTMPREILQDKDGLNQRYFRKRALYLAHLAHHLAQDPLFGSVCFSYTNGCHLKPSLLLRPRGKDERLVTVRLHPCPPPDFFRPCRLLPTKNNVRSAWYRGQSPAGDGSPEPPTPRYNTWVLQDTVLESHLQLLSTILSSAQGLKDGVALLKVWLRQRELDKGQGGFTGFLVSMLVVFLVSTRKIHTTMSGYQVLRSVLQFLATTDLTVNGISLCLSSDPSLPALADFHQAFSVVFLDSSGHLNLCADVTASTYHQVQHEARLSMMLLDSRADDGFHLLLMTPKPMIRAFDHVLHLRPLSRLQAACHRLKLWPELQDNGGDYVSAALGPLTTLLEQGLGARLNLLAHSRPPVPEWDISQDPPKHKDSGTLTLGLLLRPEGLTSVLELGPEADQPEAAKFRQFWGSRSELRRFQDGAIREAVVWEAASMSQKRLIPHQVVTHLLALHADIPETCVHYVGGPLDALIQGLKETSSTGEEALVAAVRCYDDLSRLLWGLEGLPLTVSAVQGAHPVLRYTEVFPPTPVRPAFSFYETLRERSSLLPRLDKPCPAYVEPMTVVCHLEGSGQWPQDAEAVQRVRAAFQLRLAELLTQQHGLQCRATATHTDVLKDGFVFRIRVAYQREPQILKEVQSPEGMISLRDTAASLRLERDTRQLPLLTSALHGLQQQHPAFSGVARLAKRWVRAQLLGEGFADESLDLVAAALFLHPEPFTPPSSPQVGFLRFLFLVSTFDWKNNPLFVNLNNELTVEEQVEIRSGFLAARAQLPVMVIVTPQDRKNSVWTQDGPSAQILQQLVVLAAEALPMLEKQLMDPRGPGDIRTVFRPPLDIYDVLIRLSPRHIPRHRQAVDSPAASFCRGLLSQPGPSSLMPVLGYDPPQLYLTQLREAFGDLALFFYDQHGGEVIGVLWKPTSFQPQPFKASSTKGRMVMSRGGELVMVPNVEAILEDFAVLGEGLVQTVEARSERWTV
UniProt Q14980: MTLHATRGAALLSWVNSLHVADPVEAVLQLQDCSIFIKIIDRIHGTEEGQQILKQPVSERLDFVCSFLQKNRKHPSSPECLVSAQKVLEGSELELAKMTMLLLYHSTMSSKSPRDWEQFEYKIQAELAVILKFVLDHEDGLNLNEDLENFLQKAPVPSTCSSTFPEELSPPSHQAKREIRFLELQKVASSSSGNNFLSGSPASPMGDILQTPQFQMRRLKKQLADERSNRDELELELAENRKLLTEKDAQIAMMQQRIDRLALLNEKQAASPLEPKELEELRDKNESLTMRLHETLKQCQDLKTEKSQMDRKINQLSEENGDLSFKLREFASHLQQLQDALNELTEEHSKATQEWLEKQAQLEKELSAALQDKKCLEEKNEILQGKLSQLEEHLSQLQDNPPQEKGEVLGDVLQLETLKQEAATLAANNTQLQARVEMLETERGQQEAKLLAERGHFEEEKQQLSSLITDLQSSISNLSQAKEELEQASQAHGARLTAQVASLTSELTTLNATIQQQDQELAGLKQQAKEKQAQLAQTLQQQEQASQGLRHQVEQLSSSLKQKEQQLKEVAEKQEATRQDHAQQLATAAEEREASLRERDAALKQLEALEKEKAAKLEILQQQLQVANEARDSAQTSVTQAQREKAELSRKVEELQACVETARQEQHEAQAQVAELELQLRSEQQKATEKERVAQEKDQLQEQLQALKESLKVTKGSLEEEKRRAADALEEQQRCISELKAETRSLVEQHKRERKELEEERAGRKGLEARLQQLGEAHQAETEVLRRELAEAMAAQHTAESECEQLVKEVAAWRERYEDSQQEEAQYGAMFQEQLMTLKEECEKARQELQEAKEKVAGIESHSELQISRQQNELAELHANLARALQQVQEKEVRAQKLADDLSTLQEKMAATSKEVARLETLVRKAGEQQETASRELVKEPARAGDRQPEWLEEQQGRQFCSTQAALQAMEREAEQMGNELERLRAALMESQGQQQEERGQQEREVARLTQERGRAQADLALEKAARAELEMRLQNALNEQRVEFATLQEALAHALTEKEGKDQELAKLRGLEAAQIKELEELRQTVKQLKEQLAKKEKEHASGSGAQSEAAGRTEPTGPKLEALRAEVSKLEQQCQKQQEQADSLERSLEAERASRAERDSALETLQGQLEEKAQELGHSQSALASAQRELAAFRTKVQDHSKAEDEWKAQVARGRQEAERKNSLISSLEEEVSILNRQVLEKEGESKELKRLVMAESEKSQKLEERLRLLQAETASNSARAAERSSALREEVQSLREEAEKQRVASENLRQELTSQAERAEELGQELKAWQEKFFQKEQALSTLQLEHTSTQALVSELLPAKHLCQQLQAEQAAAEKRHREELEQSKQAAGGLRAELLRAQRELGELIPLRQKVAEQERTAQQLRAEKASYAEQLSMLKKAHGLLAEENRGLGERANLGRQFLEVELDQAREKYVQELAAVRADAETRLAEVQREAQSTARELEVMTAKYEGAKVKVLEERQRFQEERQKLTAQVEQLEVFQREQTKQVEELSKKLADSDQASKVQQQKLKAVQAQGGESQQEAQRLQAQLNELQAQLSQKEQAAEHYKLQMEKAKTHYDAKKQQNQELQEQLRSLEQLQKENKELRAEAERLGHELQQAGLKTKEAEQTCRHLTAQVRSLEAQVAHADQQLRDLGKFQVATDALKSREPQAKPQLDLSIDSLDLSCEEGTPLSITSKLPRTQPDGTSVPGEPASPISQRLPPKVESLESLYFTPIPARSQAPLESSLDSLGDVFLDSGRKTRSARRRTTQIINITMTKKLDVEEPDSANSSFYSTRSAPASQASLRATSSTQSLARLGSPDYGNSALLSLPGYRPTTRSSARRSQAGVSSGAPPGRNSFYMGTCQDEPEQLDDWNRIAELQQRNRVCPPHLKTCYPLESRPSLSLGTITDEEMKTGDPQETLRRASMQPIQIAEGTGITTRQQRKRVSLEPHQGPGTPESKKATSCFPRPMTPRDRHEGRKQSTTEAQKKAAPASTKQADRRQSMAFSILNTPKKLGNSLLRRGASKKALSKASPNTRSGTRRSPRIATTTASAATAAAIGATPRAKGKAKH
UniProt Q96MG7: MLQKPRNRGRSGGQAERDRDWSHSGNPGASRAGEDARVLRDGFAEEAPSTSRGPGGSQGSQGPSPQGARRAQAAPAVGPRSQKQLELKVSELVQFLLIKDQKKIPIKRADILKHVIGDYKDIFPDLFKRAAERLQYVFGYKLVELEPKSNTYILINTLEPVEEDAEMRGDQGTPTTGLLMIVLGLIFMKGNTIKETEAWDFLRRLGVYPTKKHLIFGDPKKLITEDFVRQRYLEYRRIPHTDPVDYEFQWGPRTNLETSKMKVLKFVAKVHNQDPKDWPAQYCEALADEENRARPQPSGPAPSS
UniProt Q9BSD7: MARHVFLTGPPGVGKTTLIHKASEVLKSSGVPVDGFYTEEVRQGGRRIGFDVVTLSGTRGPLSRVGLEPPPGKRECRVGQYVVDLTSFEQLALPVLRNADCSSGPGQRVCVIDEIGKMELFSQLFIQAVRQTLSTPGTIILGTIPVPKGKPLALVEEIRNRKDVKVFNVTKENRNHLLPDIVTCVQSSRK

What was measured:
Test in all cases: log2 fold change, soluble protein after heating vs DMSO (PISA); higher = thermal stabilisation; K562 lysate, 10 uM; active = over 0.2 and 3.5 SD of the protein, either way, in both replicates (recomputed)
[1] = compound: CS(=O)(=O)CCNCc1ccc(-c2ccc3ncnc(Nc4ccc(OCc5cccc(F)c5)c(Cl)c4)c3c2)o1 [lapatinib]
How it was run: (§1)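 To prepare the extract, K562 pellets were dounce-homogenised in PBS pH 7.4 with 1 mM MgCl2, giving crude material at 1 mg/mL protein. This was treated with 10 μM compound for 30 min, then heated in aliquots for 3 min over 48°C-58°C before pooling and addition of NP-40 to 0.5% at 4°C. Centrifugation at 21,000xg for 90 min left soluble protein in the supernatant, which TMTpro 16plex LC-MS/MS quantified with equalised channel sums. Results are log-two fold changes in thermal stability compared with solvent controls, from duplicates.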

[2] = compound: CS(=O)(=O)N1CCN(Cc2cc3nc(-c4cccc5[nH]ncc45)nc(N4CCOCC4)c3s2)CC1 [pictilisib]
How it was run: as §1

[3] = compound: C[C@@H](Oc1cc(-c2cnn(C3CCNCC3)c2)cnc1N)c1c(Cl)ccc(F)c1Cl [crizotinib]
How it was run: as §1

[4] = compound: C[C@H](C1=CC=C(C=C1)C(=O)NC2=C3C=CNC3=NC=C2)N
How it was run: as §1

[5] = compound: C[C@H](Nc1ncnc2nc[nH]c12)c1cc2cccc(Cl)c2c(=O)n1-c1ccccc1 [duvelisib]
How it was run: as §1

[6] = compound: Cc1cc(Nc2cc(CN3CCOCC3)c3nc(C)c(Cc4ccc(Cl)cc4F)n3n2)n[nH]1 [gandotinib]
How it was run: as §1

[7] = compound: Cc1cc(Nc2cc(N3CCN(C)CC3)nc(Sc3ccc(NC(=O)C4CC4)cc3)n2)n[nH]1 [tozasertib]
How it was run: as §1

[8] = compound: Cc1ccc(-n2nc(C(C)(C)C)cc2NC(=O)Nc2ccc(OCCN3CCOCC3)c3ccccc23)cc1 [doramapimod]
How it was run: as §1

[9] = compound: Cc1ccc(NC(=O)c2ccc(CN3CC[C@H](N(C)C)C3)c(C(F)(F)F)c2)cc1Nc1nccc(-c2cncnc2)n1 [bafetinib]
How it was run: as §1

[10] = compound: Cc1cccc(CC(=O)N2CCc3c2ccc(-c2cn(C)c4ncnc(N)c24)c3F)n1
How it was run: as §1

Target | log2 fold change [1] | log2 fold change [2] | log2 fold change [3] | log2 fold change [4] | log2 fold change [5] | log2 fold change [6] | log2 fold change [7] | log2 fold change [8] | log2 fold change [9] | log2 fold change [10]
NUF2 (UniProt Q9BZD4) | inactive: -0.002 | inactive: -0.028 | inactive: -0.024 | inactive: -0.023 | inactive: -0.019 | inactive: -0.103 | inactive: 0.023 | inactive: 0.008 | inactive: -0.087 | inactive: 0.053
NOP14 (UniProt P78316) | inactive: -0.025 | inactive: 0.016 | inactive: -0.042 | inactive: -0.065 | inactive: -0.098 | inactive: -0.124 | inactive: -0.007 | inactive: -0.008 | inactive: -0.006 | inactive: 0.076
NT5C3A (UniProt Q9H0P0) | inactive: 0.002 | inactive: -0.03 | inactive: -0.035 | inactive: -0.032 | inactive: -0.028 | inactive: -0.021 | inactive: -0.015 | inactive: -0.008 | inactive: 0.011 | inactive: 0.057
NOSIP (UniProt Q9Y314) | inactive: -0.03 | inactive: -0.042 | inactive: -0.026 | inactive: 0.02 | inactive: -0.004 | inactive: 0.017 | inactive: -0.053 | inactive: 0.013 | inactive: -0.003 | inactive: 0.038
NONO (UniProt Q15233) | inactive: -0.004 | inactive: 0.001 | inactive: 0.011 | inactive: 0.071 | inactive: -0.01 | inactive: -0.06 | inactive: 0.028 | inactive: -0.014 | inactive: -0.033 | inactive: -0.04
NSDHL (UniProt C9JDR0) | inactive: 0.168 | – | – | – | – | – | – | – | – | –
NUFIP2 (UniProt Q7Z417) | inactive: 0.015 | inactive: -0.025 | inactive: 0.01 | inactive: -0.01 | inactive: -0.049 | inactive: 0.022 | inactive: -0.042 | inactive: -0.021 | inactive: 0.064 | inactive: -0.03
NUDT4 (UniProt Q9NZJ9) | inactive: -0.01 | inactive: -0.055 | inactive: 0.032 | inactive: 0.166 | inactive: -0.039 | inactive: -0.188 | inactive: -0.022 | inactive: -0.076 | inactive: 0.117 | active: -0.304
NUMB (UniProt P49757) | inactive: 0.033 | inactive: 0.023 | inactive: 0.02 | inactive: -0.057 | inactive: 0.029 | inactive: 0.097 | inactive: 0.047 | inactive: 0.125 | inactive: -0.069 | inactive: 0.038
NUBP1 (UniProt P53384) | inactive: -0.054 | inactive: -0.036 | inactive: -0.02 | inactive: 0.033 | inactive: -0.004 | inactive: -0.012 | inactive: 0.007 | inactive: 0.01 | inactive: 0.017 | inactive: -0.015
NTHL1 (UniProt P78549) | inactive: -0.117 | inactive: -0.401 | inactive: 0.001 | inactive: 0.097 | inactive: -0.018 | inactive: -0.007 | inactive: -0.081 | inactive: 0.012 | inactive: -0.103 | inactive: 0.091
NOL6 (UniProt Q9H6R4) | inactive: -0.018 | inactive: -0.027 | inactive: -0.009 | inactive: 0.011 | inactive: 0.012 | inactive: -0.011 | inactive: -0.028 | inactive: 0.012 | inactive: -0.051 | inactive: 0.036
NME1 isoform 2 (UniProt P15531) | inactive: 0.053 | inactive: 0.039 | inactive: 0.044 | inactive: -0.151 | inactive: 0.098 | inactive: 0.108 | inactive: -0.075 | inactive: -0.095 | inactive: 0.059 | inactive: -0.128
NUMA1 (UniProt Q14980) | inactive: -0.012 | inactive: -0.021 | inactive: -0.017 | inactive: 0.024 | inactive: 0.021 | inactive: -0.024 | inactive: 0 | inactive: 0.029 | inactive: -0.03 | inactive: 0.031
NSMCE3 (UniProt Q96MG7) | inactive: 0.033 | inactive: 0 | inactive: -0.099 | inactive: -0.021 | inactive: -0.043 | inactive: -0.055 | inactive: -0.032 | inactive: -0.004 | inactive: -0.001 | inactive: 0.037
NTPCR (UniProt Q9BSD7) | inactive: -0.003 | inactive: -0.028 | inactive: -0.071 | inactive: 0.031 | inactive: -0.003 | inactive: -0.094 | inactive: -0.028 | inactive: 0.011 | inactive: -0.044 | inactive: -0.052

Looked up above.
log2 fold change [3], NTHL1 (UniProt P78549) reads inactive: 0.001
log2 fold change [7], NOL6 (UniProt Q9H6R4) reads inactive: -0.028
